Experimental data published in PubChem BioAssay AID652054 (National Center for Advancing Translational Sciences (NCATS), 2013).
Screen size: about 360,000 compounds; about 9,100 (2.5%) were called active. This list was built around the results that the source calls inconclusive (neither active nor inactive); the mix of calls is not that of the screen. Cut-off read from the data, not from the text of the source: active = max response below about -50%; inconclusive = no clear call, values can overlap the other calls; inactive = above that.

Sequences of proteins named here, by UniProt entry; tags and fusion partners are left off.
UniProt P35462, whole entry, looked up: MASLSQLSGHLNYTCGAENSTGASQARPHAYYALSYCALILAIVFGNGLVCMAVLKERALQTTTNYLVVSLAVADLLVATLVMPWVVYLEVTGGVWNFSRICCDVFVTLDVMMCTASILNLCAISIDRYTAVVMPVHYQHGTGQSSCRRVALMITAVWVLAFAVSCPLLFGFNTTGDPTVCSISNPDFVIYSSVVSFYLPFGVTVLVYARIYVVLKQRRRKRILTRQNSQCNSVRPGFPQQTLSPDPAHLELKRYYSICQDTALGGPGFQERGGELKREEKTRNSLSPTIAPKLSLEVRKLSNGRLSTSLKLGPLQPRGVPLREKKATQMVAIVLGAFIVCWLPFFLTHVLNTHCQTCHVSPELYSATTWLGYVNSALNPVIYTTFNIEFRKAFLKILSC

Molecular target: D(3) dopamine receptor (Homo sapiens) (UniProt P35462)
Assay: qHTS of D3 Dopamine Receptor Antagonist: qHTS
Settings: D3R cells, DiscoveRx beta-arrestin luminescence, antagonist mode; active compounds read low
Summary of the method: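 Cells plated overnight at 1500 cells/well, then exposed to library compounds with dopamine controls for 90 minutes at 37 degrees C. DiscoveRx reagent added for 30–60 minutes at room temperature; luminescence read, quantitative HTS format.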
% is set by controls: 0 for no effect and ±100 for the full control effect.

SMILES	max response, negative = inhibition
CC1SC(=NC(=O)c2ccco2)NC1=O (configuration not stated)	inconclusive: -44.3%
C#CCOCCOCCOCCNc1nc(N2CCOCC2)nc(N2CCN(C(=O)[C@H]([C@@H](C)O)n3cc(CCCCN)nn3)CC2)n1	inconclusive: -34.8%
COc1ccc(C(=O)N/N=C(/C)c2cccc(NC(=O)c3ccccc3F)c2)cc1	inactive: 8.43%
Cc1nnc(NC(=O)c2ccc(S(=O)(=O)N3CCCCCC3)cc2)o1	active: -71.9%
O=C(O)CSCc1c(F)cccc1Cl	inconclusive: -32.1%
CN1CCN(CCNC(=O)c2cc3c(=O)n(C)c4ccccc4c3n2C)CC1	inconclusive: -35.8%
Cc1nc2nc(Cc3ccccc3)nn2c(C)c1Cl	inconclusive: -36.4%
FC(F)(F)Oc1ccccc1C(c1nnnn1C1CCCCC1)N1CCN(C/C=C/c2ccccc2)CC1 (configuration not stated)	active: -77.9%
O=C(Nc1ccc(NC(=O)c2cccs2)cc1)c1ccc(Br)o1	inactive: 3.04%
COc1ccc(Cl)cc1CC1(C)C(=O)Nc2c(Cl)cccc21 (configuration not stated)	inactive: -1.91%
Cc1ccc(S(=O)(=O)/N=C2/C=C(Sc3ncn[nH]3)C(=O)c3ccccc32)cc1	active: -104%
N#Cc1ccccc1OCCOCCNC1CCCC1	inconclusive: -41.3%
O=C(Nc1ccc(Cl)c(C(F)(F)F)c1)C1Cc2c(-c3ccccc3)ccnc2O1 (configuration not stated)	inconclusive: -31.3%
Cc1cc(NC(=O)CCN2CCC(C)CC2)ccc1Br	active: -106%
CN(C)c1ccc(Nc2ccc([N+](=O)[O-])cn2)cc1	active: -59.7%
CC1CCCCN1CCNC(=O)C1CCN(S(=O)(=O)N2CCCCC2)CC1 (configuration not stated)	inconclusive: -32.8%
N#Cc1cc2c(nc1SCc1ccc(Cl)cc1)CCCC2	active: -64.4%
CC(=O)Oc1ccc2c(=O)c(-c3nc4ccccc4s3)coc2c1	inactive: 7.77%
O=C(NCc1ccncc1)c1ccc(Cn2cc(C(F)(F)F)ccc2=O)cc1	inconclusive: -46%

SMILES	max response, negative = inhibition
Cc1ccc(CCNC(=O)CNC(=S)N(Cc2ccccc2)Cc2cccnc2)cc1	inactive: 6.46%
COc1ccccc1-c1cc(C(F)(F)F)nc(S(=O)(=O)CCCC(=O)NCc2ccc(F)cc2)n1	active: -67%
CC(O)[C@H]1CNCCN1CCc1cc(C(F)(F)F)cc(C(F)(F)F)c1 (some centres not stated)	inconclusive: -32.1%
CCOC(=O)[C@]12CCC=C1N(Cc1ccco1)C(=O)[C@H](CC(=O)N1CCN(C(=O)C3CC3)CC1)C2	inconclusive: -31.4%
COCC(=O)N(C)C[C@@H]1Oc2ncc(Br)cc2C(=O)N([C@@H](C)CO)C[C@H]1C	inconclusive: -31.2%
Cc1nn(Cc2ccccc2)c2sc(C(=O)N3CCN(Cc4ccc5c(c4)OCO5)CC3)cc12	inconclusive: -32.7%
COc1ccc(OCC(=O)Nc2cc(NC(=O)c3ccco3)ccc2OC)cc1	inactive: 1.86%
COc1ccc(C(=O)Nc2ccccc2C(=O)NC2CC2)c(OC)c1OC	inactive: 0.357%
Cc1nn2c(NC(C)C)c3c(nc2c1-c1ccccc1)CCC3	inactive: -7.76%
COc1ccc(C(CNC(=O)CCNS(=O)(=O)c2ccc(Br)cc2)N2CCCC2)cc1 (configuration not stated)	active: -50.4%
COc1ccc(F)c(CN2CCN(CCc3ccccc3)C(CCO)C2)c1 (configuration not stated)	inconclusive: -47%
CCN1CCN(Cc2c(OC)ccc3ccccc23)CC1	inconclusive: -45.9%
COc1cc(C)c(S(=O)(=O)N2CCOCC2)cc1C(C)C	active: -88.3%
CC(=O)c1cccc(NC(=O)COc2ccccc2)c1	inconclusive: -40.9%
O=c1c2cc([N+](=O)[O-])ccc2sn1-c1ccccc1	active: -94%
COc1ccc(Nc2ncccc2C(=O)O)cc1	inconclusive: -41.9%
O=C(N/N=C/c1ccc(-c2ccccc2[N+](=O)[O-])o1)c1cccnc1	active: -58.6%
CCN1CCSc2ccc(C(=O)NCc3cccc(Br)c3)cc21	inconclusive: -41%
Cc1cccc(-n2cc(CN3CCN(c4ccccn4)CC3)c(-c3cccc(F)c3)n2)c1	inconclusive: -46.2%

SMILES	max response, negative = inhibition
CC(=O)Nc1ccc(N=Cc2c(O)c(C(=O)Nc3ccccc3)cc3ccccc23)cc1	inactive: 11.3%
CCCC1CCC(=C(C#N)C(N)=O)CC1 (configuration not stated)	inconclusive: -37.3%
Cn1nc(C(F)(F)F)c(C#N)c1N1CCN(c2ccc(F)cc2)CC1	inconclusive: -42.2%
CCOc1cccc(CN2CCCC(C(=O)c3cccc(C(F)(F)F)c3)C2)c1O (configuration not stated)	inconclusive: -45.9%
CN(C)c1ccc(/C=C2\N=C(c3ccc(Cl)c([N+](=O)[O-])c3)NC2=O)cc1	inconclusive: -48.3%
CN1CCN(C2=C(Cl)C(=O)N(c3ccc(Cl)cc3)C2=O)CC1	active: -82.6%
CCc1nc2ccc(C(=O)NCC3CCCCC3)cn2c1N(C)Cc1nccs1	inactive: 5.23%
Cc1nc([N+](=O)[O-])c(Br)n1Cc1ccccc1	inconclusive: -37.4%
Cn1nnc(NC(=S)NC(=O)c2cccc3ccccc23)n1	inconclusive: -35.8%
Cc1ccc(-c2csc3ncnc(Sc4nnc(CN5CCCCCC5=O)o4)c23)cc1	active: -68.7%
CCOC(=O)c1sc(NC(=O)c2cc(S(=O)(=O)N3CCOCC3)ccc2C)nc1C	active: -55.1%
CSc1ccc(-c2nnn(Cc3ccccn3)n2)cc1	inactive: -0.685%
CC(=O)c1ccc(OCC(=O)NC2CCCCCC2)cc1	inconclusive: -40.2%
O=C(O)c1cnc(-c2ccccc2)nc1Sc1cccc(Cl)c1	inconclusive: -35.2%
Cc1ccc(OCCC(=O)OCC(=O)NCCc2ccccc2)cc1	inactive: 6.46%
N/C(=N\OC(=O)c1ccc(Cl)c([N+](=O)[O-])c1)c1ccccn1	inconclusive: -40.2%
COc1ccccc1NC(=O)Nc1nc(CC(=O)Nc2ccc(F)c(F)c2)cs1	inconclusive: -32.6%
O=C(CCCCCN1C(=O)CCC1=O)Nc1ncn[nH]1	active: -53.3%
CC(C)c1nc(SCC(=O)Nc2ccc(C(=O)O)cc2)c2c3c(sc2n1)CCCC3	inconclusive: -39.3%

Structures shown so far that have two or more sulfur atoms:
SMILES	max response, negative = inhibition
Cc1ccc(S(=O)(=O)/N=C2/C=C(Sc3ncn[nH]3)C(=O)c3ccccc32)cc1	active: -104%
Cc1ccc(-c2csc3ncnc(Sc4nnc(CN5CCCCCC5=O)o4)c23)cc1	active: -68.7%
CCOC(=O)c1sc(NC(=O)c2cc(S(=O)(=O)N3CCOCC3)ccc2C)nc1C	active: -55.1%
CC(C)c1nc(SCC(=O)Nc2ccc(C(=O)O)cc2)c2c3c(sc2n1)CCCC3	inconclusive: -39.3%
